The target of test [1] is human LACTB (residues 97 to 547) E149R-N150A double mutant (human) (UniProt P83111). The test is described as follows: SEC; Superose 6 Increase 10/300 GL; 20 mM HEPES-NaOH (pH 7.5), 140 mM NaCl, 10 mM KCl, 1 mM MgCl2, 1 mM DTT; self-assembly, filaments elute within the void volume; both purified. (In gel filtration, larger molecules generally elute earlier.)
Test [2] shares this target. The test is described as follows: negative-stain TEM; SEC peak fractions diluted to approximately 2.0 μm (so in the source), 0.75% uranyl formate, Tecnai T12 at 100 kV; self-assembly into filaments; both purified.
Test [3] concerns the target human LACTB (residues 97 to 547) I368A-N370A-R371E triple mutant (human) (UniProt P83111). The test is described as follows: SEC; Superose 6 Increase 10/300 GL; 20 mM HEPES-NaOH (pH 7.5), 140 mM NaCl, 10 mM KCl, 1 mM MgCl2, 1 mM DTT; self-assembly, filaments elute within the void volume; both purified.
The target is the same in test [4]. The test is described as follows: negative-stain TEM; SEC peak fractions diluted to approximately 2.0 μm (so in the source), 0.75% uranyl formate, Tecnai T12 at 100 kV; self-assembly into filaments; both purified.

No constants are given. Whether binding was seen depends on the method and setting.

B1: human LACTB (residues 97 to 547) E149R-N150A double mutant (enzyme, UniProt P83111 97-547)
chain: APPCSRCFARAIESSRDLLHRIKDEVGAPGIVVGVSVDGKEVWSEGLGYADVRARVPCKPETVMRIASISKSLTMVALAKLWEAGKLDLDIPVQHYVPEFPEKEYEGEKVSVTTRLLISHLSGIRHYEKDIKKVKEEKAYKALKMMKENVAFEQEKEGKSNEKNDFTKFKTEQENEAKCRNSKPGKKKNDFEQGELYLREKFENSIESLRLFKNDPLFFKPGSQFLYSTFGYTLLAAIVERASGCKYLDYMQKIFHDLDMLTTVQEENEPVIYNRARFYVYNKKKRLVNTPYVDNSYKWAGGGFLSTVGDLLKFGNAMLYGYQVGLFKNSNENLLPGYLKPETMVMMWTPVPNTEMSWDKEGKYAMAWGVVERKQTYGSCRKQRHYASHTGGAVGASSVLLVLPEELDTETINNKVPPRGIIVSIICNMQSVGLNSTALKIALEFDKDRSD
With B1, the binding entry in test [1] was “no binding”; in test [2], “no binding (tested: approximately 2.0 μm (so in the source))”.

B2: human LACTB (residues 97 to 547) I368A-N370A-R371E triple mutant (enzyme, UniProt P83111 97-547)
chain: APPCSRCFARAIESSRDLLHRIKDEVGAPGIVVGVSVDGKEVWSEGLGYADVENRVPCKPETVMRIASISKSLTMVALAKLWEAGKLDLDIPVQHYVPEFPEKEYEGEKVSVTTRLLISHLSGIRHYEKDIKKVKEEKAYKALKMMKENVAFEQEKEGKSNEKNDFTKFKTEQENEAKCRNSKPGKKKNDFEQGELYLREKFENSIESLRLFKNDPLFFKPGSQFLYSTFGYTLLAAIVERASGCKYLDYMQKIFHDLDMLTTVQEENEPVAYAEARFYVYNKKKRLVNTPYVDNSYKWAGGGFLSTVGDLLKFGNAMLYGYQVGLFKNSNENLLPGYLKPETMVMMWTPVPNTEMSWDKEGKYAMAWGVVERKQTYGSCRKQRHYASHTGGAVGASSVLLVLPEELDTETINNKVPPRGIIVSIICNMQSVGLNSTALKIALEFDKDRSD
For B2, the binding entry in test [3] is on record as “no binding”; in test [4] it was “no binding (tested: approximately 2.0 μm (so in the source))”.

These data come from publication PMC9815587, “The structure of the human LACTB filament reveals the mechanisms of assembly and membrane binding” (PLOS Biology, 2022).
